In test [1] the target is T1, RIP used as bait protein in the yeast two-hybrid system, Q13546.
T1 chain: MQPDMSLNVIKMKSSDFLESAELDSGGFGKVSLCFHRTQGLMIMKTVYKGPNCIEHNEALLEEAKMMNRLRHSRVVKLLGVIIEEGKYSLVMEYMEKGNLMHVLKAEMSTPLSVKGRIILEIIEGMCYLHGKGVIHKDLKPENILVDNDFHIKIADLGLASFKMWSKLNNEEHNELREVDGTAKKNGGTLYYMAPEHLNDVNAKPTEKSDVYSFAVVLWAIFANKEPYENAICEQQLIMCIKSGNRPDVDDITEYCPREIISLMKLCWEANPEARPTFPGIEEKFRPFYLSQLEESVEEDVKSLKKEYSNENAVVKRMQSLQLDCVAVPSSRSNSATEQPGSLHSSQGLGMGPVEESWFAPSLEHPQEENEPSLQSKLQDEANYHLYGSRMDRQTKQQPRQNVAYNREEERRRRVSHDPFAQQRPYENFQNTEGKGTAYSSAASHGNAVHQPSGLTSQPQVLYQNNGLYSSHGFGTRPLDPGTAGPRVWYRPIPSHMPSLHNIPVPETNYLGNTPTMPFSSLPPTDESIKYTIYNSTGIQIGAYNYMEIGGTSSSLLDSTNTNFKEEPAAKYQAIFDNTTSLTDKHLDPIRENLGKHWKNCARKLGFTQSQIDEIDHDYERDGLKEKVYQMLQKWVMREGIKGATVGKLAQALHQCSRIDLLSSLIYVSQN
The experiment in a line: yeast two-hybrid screen, RIP as bait, Hela/Lymphocyte cDNA library. Conditions: remark: other sources report otherwise.

The target in test [2] is RIP used as bait protein in the yeast two-hybrid system (UniProt Q13546). Described as above.

Results are given in words; binding and its absence hold for the method and conditions named. Some results given as binding are weak or reduced against the parent protein; the word gives no strength.

Our source for the binding values is US7223850.

B1: TRAF2 as tested in the yeast two-hybrid system, Q12933 1-501 (protein, UniProt Q12933 1-501, looked up)
chain: MAAASVTPPGSLELLQPGFSKTLLGTKLEAKYLCSACRNVLRRPFQAQCGHRYCSFCLASILSSGPQNCAACVHEGIYEEGISILESSSAFPDNAARREVESLPAVCPSDGCTWKGTLKEYESCHEGRCPLMLTECPACKGLVRLGEKERHLEHECPERSLSCRHCRAPCCGADVKAHHEVCPKFPLTCDGCGKKKIPREKFQDHVKTCGKCRVPCRFHAIGCLETVEGEKQQEHEVQWLREHLAMLLSSVLEAKPLLGDQSHAGSELLQRCESLEKKTATFENIVCVLNREVERVAMTAEACSRQHRLDQDKIEALSSKVQQLERSIGLKDLAMADLEQKVLEMEASTYDGVFIWKISDFARKRQEAVAGRIPAIFSPAFYTSRYGYKMCLRIYLNGDGTGRGTHLSLFFVVMKGPNDALLRWPFNQKVTLMLLDQNNREHVIDAFRPDVTSSSFQRPVNDMNIASGCPLFCPVSKMEAKNSYVRDDAIFIKAIVDLTGL
B1: in test [1], the binding entry is “binds”.

B2: TRAF1 cloned from the Hela/Lymphocyte cDNA library in the yeast two-hybrid screen (protein, UniProt Q13077 1-416, looked up)
chain: MASSSGSSPRPAPDENEFPFGCPPTVCQDPKEPRALCCAGCLSENPRNGEDQICPKCRGEDLQSISPGSRLRTQEKAHPEVAEAGIGCPFAGVGCSFKGSPQSVQEHEVTSQTSHLNLLLGFMKQWKARLGCGLESGPMALEQNLSDLQLQAAVEVAGDLEVDCYRAPCSESQEELALQHFMKEKLLAELEGKLRVFENIVAVLNKEVEASHLALATSIHQSQLDRERILSLEQRVVELQQTLAQKDQALGKLEQSLRLMEEASFDGTFLWKITNVTRRCHESACGRTVSLFSPAFYTAKYGYKLCLRLYLNGDGTGKRTHLSLFIVIMRGEYDALLPWPFRNKVTFMLLDQNNREHAIDAFRPDLSSASFQRPQSETNVASGCPLFFPLSKLQSPKHAYVKDDTMFLKCIVETST
With B2, in test [2], the binding result is reported as “binds”.

B3: TRADD cloned from the Hela/Lymphocyte cDNA library in the yeast two-hybrid screen (protein, UniProt Q15628 1-312, looked up)
chain: MAAGQNGHEEWVGSAYLFVESSLDKVVLSDAYAHPQQKVAVYRALQAALAESGGSPDVLQMLKIHRSDPQLIVQLRFCGRQPCGRFLRAYREGALRAALQRSLAAALAQHSVPLQLELRAGAERLDALLADEERCLSCILAQQPDRLRDEELAELEDALRNLKCGSGARGGDGEVASAPLQPPVPSLSEVKPPPPPPPAQTFLFQGQPVVNRPLSLKDQQTFARSVGLKWRKVGRSLQRGCRALRDPALDSLAYEYEREGLYEQAFQLLRRFVQAEGRRATLQRLVEALEENELTSLAEDLLGLTDPNGGLA
With B3, the binding entry in test [2] is on record as “binds”.

B4: RIP cloned from the Hela/Lymphocyte cDNA library in the yeast two-hybrid screen, Q13546 1-671 (enzyme, UniProt Q13546 1-671, looked up)
chain: MQPDMSLNVIKMKSSDFLESAELDSGGFGKVSLCFHRTQGLMIMKTVYKGPNCIEHNEALLEEAKMMNRLRHSRVVKLLGVIIEEGKYSLVMEYMEKGNLMHVLKAEMSTPLSVKGRIILEIIEGMCYLHGKGVIHKDLKPENILVDNDFHIKIADLGLASFKMWSKLNNEEHNELREVDGTAKKNGGTLYYMAPEHLNDVNAKPTEKSDVYSFAVVLWAIFANKEPYENAICEQQLIMCIKSGNRPDVDDITEYCPREIISLMKLCWEANPEARPTFPGIEEKFRPFYLSQLEESVEEDVKSLKKEYSNENAVVKRMQSLQLDCVAVPSSRSNSATEQPGSLHSSQGLGMGPVEESWFAPSLEHPQEENEPSLQSKLQDEANYHLYGSRMDRQTKQQPRQNVAYNREEERRRRVSHDPFAQQRPYENFQNTEGKGTAYSSAASHGNAVHQPSGLTSQPQVLYQNNGLYSSHGFGTRPLDPGTAGPRVWYRPIPSHMPSLHNIPVPETNYLGNTPTMPFSSLPPTDESIKYTIYNSTGIQIGAYNYMEIGGTSSSLLDSTNTNFKEEPAAKYQAIFDNTTSLTDKHLDPIRENLGKHWKNCARKLGFTQSQIDEIDHDYERDGLKEKVYQMLQKWVMREGIKGATVGKLAQALHQCSRIDLLSSLIYVSQN
On to B4, for which the binding entry in test [1] was “binds”.
